Results are given in words; binding and its absence hold for the method and conditions named. Some binding calls cover weakened binding; strength is not graded here.
How the values were obtained:
[1] = molecular target: human STOP-1, full length, untagged, expressed by retroviral infection in 3T3 and 293 cells (human) (UniProt Q96CG8); test: immunoprecipitation from lysates of infected 3T3 and 293 cells, western with polyclonal anti-STOP-1
[2] = molecular target: human STOP-1, full length, C-terminal 8xHis tag (h762HIP; M1-K243-His), expressed in CHO-psgb cells (human) (UniProt Q96CG8); test: FACS on HT1080 cells with His-tagged STOP-1

Protein sequences, listed by entry. Tags and fused reporters are not part of them. Lines headed by an entry give the natural chain unless they say otherwise; changes in a name come on top.
UniProt Q96CG8: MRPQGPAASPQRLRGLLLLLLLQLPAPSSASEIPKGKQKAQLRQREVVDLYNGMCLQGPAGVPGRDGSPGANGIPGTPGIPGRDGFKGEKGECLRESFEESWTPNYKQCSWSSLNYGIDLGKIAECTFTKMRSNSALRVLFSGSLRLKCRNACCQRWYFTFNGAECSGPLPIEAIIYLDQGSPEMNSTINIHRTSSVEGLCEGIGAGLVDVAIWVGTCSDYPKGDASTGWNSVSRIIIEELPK

B1: S7 IgG (full-length human IgG1; LPG3-humankappaG6 and LPG4-humanHC-S7), expressed in CHO cells (antibody, V domains shown, not shown: a dimerising Fc or GST)
VH: EVQLVESGGGLVQPGGSLRLSCAASGFTISGSDIHWVRQAPGKGLEWVGRISPYGGNTNYADSVKGRFTISADTSKNTAYLQMNSLRAEDTAVYYCARVGGLKLLFDYWGQGTLVTVSS
VL: DIQMTQSPSSLSASVGDRVTITCRASQDVSTAVAWYQQKPGKAPKLLIYSASFLYSGVPSRFSGSGSGTDFTLTISSLQPEDFATYYCQQSYTTPPTFGQGTKVEIKR
[1]
  binding: binds
[2]
  binding: binds

Reference: patent US20110112279A1
